From the supplement of paper PMC10849652
This is one part of the list.

Chains of the proteins cited; added tags and fusions are not shown. Lines headed by an entry give the natural chain unless they say otherwise; changes in a name come on top.
UniProt O14497, whole entry, looked up: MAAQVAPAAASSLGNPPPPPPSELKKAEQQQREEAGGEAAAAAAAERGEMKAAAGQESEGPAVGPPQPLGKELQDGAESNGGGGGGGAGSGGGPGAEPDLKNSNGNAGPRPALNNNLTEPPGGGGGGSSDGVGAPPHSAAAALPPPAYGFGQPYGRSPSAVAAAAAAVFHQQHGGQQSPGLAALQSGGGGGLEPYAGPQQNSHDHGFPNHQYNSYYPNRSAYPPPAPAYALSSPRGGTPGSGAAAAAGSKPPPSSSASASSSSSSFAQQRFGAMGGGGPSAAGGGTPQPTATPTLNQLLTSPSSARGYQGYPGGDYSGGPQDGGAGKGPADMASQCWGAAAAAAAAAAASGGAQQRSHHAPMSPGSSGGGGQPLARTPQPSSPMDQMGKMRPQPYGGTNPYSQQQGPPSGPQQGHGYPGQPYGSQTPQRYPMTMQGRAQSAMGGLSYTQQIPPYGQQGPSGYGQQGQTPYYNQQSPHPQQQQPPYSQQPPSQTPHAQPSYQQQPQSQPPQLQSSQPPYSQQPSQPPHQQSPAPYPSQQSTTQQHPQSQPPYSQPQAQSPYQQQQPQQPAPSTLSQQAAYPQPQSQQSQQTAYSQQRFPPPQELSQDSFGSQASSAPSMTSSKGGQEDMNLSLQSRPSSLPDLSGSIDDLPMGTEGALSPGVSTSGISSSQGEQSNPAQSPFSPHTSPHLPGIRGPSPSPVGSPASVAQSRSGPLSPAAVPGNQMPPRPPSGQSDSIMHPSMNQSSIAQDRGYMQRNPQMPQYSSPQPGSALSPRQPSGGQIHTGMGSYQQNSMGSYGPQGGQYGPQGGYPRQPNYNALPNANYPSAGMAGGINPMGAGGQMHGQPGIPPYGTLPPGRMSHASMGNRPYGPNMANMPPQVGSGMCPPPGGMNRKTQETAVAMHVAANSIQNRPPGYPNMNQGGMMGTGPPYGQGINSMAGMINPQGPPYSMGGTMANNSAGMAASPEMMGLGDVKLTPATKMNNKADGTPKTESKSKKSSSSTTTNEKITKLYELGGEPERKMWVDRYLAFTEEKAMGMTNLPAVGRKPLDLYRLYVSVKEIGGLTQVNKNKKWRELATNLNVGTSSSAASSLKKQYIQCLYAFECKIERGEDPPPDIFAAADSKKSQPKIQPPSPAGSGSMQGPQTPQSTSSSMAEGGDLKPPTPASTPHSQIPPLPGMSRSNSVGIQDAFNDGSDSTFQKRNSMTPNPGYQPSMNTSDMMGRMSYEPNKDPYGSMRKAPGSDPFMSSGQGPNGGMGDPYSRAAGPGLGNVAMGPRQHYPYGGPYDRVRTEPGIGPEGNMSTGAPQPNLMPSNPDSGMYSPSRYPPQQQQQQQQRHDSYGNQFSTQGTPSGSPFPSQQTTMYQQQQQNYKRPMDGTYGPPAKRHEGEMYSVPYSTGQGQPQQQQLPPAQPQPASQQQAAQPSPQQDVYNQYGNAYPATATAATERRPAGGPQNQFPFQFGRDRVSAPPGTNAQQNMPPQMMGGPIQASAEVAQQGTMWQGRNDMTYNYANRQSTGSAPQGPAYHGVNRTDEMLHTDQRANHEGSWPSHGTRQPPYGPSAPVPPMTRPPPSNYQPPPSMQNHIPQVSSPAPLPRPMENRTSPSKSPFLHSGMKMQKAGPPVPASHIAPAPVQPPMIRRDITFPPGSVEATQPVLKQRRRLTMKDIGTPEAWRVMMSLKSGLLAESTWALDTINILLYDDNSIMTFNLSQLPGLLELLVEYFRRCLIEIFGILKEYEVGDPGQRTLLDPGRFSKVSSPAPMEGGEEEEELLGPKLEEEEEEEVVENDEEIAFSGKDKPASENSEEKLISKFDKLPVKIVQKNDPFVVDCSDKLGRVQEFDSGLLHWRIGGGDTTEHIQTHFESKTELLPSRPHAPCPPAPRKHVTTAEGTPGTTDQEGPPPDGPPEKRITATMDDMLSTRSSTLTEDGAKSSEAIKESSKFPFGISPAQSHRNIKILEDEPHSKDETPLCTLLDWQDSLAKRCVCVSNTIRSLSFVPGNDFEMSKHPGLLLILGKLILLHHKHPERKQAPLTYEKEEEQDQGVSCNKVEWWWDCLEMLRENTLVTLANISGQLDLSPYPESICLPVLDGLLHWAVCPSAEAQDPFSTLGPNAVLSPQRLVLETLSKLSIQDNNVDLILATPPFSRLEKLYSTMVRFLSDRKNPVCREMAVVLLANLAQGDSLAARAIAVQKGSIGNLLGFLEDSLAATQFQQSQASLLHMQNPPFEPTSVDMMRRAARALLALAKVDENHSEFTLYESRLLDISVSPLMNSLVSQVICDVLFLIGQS
UniProt Q9H0R1: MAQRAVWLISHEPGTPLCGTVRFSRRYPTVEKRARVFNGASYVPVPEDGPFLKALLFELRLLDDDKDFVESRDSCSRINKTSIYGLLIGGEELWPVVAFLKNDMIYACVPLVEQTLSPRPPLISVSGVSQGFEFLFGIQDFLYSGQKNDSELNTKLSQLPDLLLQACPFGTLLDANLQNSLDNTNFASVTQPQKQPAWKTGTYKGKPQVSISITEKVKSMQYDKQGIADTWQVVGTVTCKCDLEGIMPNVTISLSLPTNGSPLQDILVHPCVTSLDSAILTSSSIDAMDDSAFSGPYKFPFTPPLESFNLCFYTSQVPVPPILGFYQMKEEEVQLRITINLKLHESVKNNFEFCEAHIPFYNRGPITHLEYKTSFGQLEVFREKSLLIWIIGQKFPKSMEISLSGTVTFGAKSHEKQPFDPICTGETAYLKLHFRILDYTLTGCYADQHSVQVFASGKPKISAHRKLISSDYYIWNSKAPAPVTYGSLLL
UniProt Q8N5I2: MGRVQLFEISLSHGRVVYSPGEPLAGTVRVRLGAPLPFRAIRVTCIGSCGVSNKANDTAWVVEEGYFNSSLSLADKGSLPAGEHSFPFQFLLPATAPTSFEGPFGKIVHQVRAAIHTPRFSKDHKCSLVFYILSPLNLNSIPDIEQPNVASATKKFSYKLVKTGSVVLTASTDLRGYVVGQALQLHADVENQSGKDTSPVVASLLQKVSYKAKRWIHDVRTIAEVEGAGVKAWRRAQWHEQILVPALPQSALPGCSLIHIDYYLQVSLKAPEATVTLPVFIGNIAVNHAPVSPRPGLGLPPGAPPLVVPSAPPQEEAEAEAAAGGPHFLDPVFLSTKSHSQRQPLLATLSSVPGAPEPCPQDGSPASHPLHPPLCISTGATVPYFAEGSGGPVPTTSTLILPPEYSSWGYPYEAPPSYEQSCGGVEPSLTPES
UniProt Q8NFD5, whole entry, looked up: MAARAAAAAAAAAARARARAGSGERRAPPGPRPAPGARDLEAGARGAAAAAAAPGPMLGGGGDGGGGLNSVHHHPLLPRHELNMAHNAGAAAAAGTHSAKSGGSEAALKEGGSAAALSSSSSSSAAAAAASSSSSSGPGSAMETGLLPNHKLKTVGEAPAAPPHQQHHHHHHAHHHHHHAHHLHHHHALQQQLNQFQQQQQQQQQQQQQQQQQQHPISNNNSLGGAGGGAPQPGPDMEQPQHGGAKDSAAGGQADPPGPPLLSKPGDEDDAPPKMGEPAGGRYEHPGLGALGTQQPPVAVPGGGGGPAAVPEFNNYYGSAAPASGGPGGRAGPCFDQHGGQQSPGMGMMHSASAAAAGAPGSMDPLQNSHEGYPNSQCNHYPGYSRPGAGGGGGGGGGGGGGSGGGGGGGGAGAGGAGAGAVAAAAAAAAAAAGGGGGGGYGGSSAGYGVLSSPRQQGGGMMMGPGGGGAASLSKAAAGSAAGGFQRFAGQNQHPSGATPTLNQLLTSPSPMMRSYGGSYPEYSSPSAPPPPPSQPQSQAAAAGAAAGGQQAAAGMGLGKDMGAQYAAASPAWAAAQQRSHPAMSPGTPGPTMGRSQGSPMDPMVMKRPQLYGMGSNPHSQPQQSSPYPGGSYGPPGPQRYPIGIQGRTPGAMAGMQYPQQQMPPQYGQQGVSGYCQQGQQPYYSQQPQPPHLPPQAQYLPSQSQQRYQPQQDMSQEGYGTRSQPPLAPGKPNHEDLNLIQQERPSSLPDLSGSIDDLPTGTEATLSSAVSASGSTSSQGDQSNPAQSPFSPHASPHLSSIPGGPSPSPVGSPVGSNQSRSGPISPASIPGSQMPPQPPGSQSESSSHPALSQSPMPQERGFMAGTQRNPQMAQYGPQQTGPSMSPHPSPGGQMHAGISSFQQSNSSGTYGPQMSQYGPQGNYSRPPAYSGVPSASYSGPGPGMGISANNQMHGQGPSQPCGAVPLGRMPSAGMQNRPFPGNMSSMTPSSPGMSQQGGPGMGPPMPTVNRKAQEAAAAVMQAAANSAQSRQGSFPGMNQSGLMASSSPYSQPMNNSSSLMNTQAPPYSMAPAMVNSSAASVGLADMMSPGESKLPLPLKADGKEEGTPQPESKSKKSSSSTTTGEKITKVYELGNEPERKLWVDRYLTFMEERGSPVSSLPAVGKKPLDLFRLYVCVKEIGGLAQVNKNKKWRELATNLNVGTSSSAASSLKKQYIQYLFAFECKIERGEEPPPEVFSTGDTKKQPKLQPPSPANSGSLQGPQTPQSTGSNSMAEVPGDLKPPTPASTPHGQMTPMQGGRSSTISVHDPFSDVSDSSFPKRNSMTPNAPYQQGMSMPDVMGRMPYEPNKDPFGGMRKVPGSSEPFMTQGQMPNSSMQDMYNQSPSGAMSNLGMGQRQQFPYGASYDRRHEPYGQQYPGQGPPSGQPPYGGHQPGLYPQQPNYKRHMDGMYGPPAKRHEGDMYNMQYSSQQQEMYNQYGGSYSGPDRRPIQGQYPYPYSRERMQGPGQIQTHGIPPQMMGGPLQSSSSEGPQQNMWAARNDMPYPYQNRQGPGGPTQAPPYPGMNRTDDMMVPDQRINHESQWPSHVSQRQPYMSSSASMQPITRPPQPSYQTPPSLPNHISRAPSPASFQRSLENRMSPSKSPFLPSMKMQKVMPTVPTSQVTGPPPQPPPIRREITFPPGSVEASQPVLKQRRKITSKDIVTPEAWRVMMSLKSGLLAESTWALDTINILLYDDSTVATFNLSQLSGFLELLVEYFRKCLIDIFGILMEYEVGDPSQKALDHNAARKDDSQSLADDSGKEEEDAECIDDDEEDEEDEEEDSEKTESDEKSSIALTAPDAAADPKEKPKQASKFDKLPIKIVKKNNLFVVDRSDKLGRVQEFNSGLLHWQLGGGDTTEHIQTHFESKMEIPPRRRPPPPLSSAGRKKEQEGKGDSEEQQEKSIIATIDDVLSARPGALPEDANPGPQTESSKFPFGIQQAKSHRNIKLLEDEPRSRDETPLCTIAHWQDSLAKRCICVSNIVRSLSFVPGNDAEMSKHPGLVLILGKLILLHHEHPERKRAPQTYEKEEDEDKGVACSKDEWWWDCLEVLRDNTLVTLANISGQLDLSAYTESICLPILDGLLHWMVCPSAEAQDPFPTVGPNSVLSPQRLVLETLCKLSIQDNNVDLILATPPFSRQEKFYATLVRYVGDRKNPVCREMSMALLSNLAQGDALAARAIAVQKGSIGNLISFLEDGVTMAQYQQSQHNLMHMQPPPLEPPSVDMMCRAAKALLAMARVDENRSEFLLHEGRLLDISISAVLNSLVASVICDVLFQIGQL
UniProt O75915: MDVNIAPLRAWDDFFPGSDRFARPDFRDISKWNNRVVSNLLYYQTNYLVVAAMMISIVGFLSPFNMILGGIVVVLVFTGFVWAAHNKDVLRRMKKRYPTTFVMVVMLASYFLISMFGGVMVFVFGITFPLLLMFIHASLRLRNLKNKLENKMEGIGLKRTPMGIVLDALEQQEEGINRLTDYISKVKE
UniProt Q6NXE6: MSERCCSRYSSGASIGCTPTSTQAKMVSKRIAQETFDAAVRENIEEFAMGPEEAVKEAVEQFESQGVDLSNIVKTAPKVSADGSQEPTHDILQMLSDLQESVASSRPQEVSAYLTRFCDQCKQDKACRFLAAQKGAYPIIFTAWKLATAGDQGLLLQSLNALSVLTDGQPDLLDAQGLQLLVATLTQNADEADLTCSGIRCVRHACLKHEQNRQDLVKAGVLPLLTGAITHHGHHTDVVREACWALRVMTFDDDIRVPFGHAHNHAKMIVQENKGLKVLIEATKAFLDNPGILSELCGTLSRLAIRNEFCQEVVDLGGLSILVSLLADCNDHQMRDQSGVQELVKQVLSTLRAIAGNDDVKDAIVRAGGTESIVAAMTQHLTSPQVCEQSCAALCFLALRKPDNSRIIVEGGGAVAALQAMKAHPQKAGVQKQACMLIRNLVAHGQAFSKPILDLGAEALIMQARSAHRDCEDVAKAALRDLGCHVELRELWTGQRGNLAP
UniProt Q92747, whole entry, looked up: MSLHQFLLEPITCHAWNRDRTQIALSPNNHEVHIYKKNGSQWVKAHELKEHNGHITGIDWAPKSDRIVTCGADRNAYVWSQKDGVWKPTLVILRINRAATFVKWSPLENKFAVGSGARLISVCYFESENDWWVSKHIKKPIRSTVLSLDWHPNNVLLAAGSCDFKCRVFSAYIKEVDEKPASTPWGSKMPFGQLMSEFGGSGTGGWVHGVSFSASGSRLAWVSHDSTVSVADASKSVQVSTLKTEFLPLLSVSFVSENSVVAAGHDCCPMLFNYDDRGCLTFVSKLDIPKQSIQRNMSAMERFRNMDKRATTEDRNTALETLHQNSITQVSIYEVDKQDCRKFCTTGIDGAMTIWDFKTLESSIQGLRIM

Legend:
Assay in all cases: log2 fold change, soluble protein after heating vs DMSO (PISA); higher = thermal stabilisation; K562 lysate, 10 uM; active = over 0.2 and 3.5 SD of the protein, either way, in both replicates (recomputed)
[1] = compound: C#Cc1cccc(Nc2ncnc3cc(OCCOC)c(OCCOC)cc23)c1 [erlotinib]
In short: (§1)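 Values give the log-two fold change in thermal stability against solvent controls, from duplicates. Crude K562 extract at 1 mg/mL protein, made by dounce homogenisation in PBS pH 7.4 with 1 mM MgCl2, was treated with 10 μM compound for 30 min. After 3 min heating across 48°C-58°C, aliquots were pooled, adjusted to 0.5% NP-40 at 4°C and centrifuged at 21,000xg for 90 min. The supernatant was measured by TMTpro 16plex LC-MS/MS with channel sums equalised.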

[2] = compound: C/C(=N\NC(=O)C1=CC(=CC=C1)S(=O)(=O)N2CCOCC2)/C3=C(C=CC(=C3)Cl)O
In short: as §1

[3] = compound: C1=CC(=CC=C1C2=NC3=C(N2)C=C(C=C3)C(=O)N)OC4=CC=C(C=C4)Cl
In short: as §1

[4] = compound: C1=CC2=C(C=CC(=C2)/C=C\3/C(=O)NC(=NCC4=CC=CS4)S3)N=C1
In short: as §1

[5] = compound: C1=CC2=NC=CN=C2C=C1/C=C/3\C(=O)NC(=O)S3
In short: as §1

[6] = compound: C1=CC=C(C=C1)C2=NC(=C(N2)C3=CC=NC=C3)C4=CC(=C(C=C4)Cl)O
In short: as §1

[7] = compound: C1=CC=C2C(=C1)C3=NNC4=CC=CC(=C43)C2=O
In short: as §1

[8] = compound: C1CCN(C1)C(=O)NC2=CC=CC(=C2)NC3=NC=C(C(=N3)NCCC4=CN=CN4)Br
In short: as §1

[9] = compound: C1CN(CCC1(CC2=CC=C(C=C2)Cl)N)C3=NC=NC4=C3C=CN4
In short: as §1

[10] = compound: C1COCCN1CCN2C3=CC=CC=C3N=C2NC(=O)C4=CC(=CC=C4)[N+](=O)[O-] [IRAK-1-4 Inhibitor I]
In short: as §1

[11] = compound: C=CC(=O)N1CCC[C@@H](n2nc(-c3ccc(Oc4ccccc4)cc3)c3c(N)ncnc32)C1 [ibrutinib]
In short: as §1

[12] = compound: CC(=O)c1cnc2ccc(-c3cc(Cl)c(O)c(Cl)c3)nc2c1N[C@H]1CC[C@H](CN(C)C)CC1
In short: as §1

[13] = compound: CC(C)(C)Cn1c(N)nc2ccc(-c3[nH]c(C(C)(C)C)nc3-c3ccc(F)cc3)nc21 [ralimetinib]
In short: as §1

[14] = compound: CC(C)(O)CC(=O)NCCn1ccc2ncnc(Nc3ccc(Oc4cccc(C(F)(F)F)c4)c(Cl)c3)c21
In short: as §1

[15] = compound: CC(C)C1=C2N=C(C=C(N2N=C1)NCC3=CC=CC=C3)NCCCCCCN
In short: as §1

[16] = compound: CC1=C(C(CC(=O)N1)C2=CC=C(C=C2)C(F)(F)F)C(=O)NC3=C(C=C4C(=C3)C=NN4)F
In short: as §1

[17] = compound: CC1=C(C2=C(C=C1)C(=O)C3=CC=CC=C3N2CCCN)C
In short: as §1

[18] = compound: CC1=C(C=C(C=C1)NC(=O)C2=CC(=CC=C2)C(C)(C)C#N)NC3=CC4=C(C=C3)N=CN(C4=O)C
In short: as §1

[19] = compound: CC1=C(C=C(C=C1)NC(=O)C2=CC(=CC=C2)N(C)C)NC(=O)C3=CC=C(C=C3)O
In short: as §1

[20] = compound: CC1=CC=C(C=C1)SC2=C3C=C(SC3=CN=C2)C(=O)N
In short: as §1

Measured: log2 fold change

ARID1A (UniProt O14497)
inactive: [1] 0.036 | [2] 0.036 | [3] 0.008 | [4] -0.015 | [5] -0.031 | [6] 0.006 | [7] -0.027 | [8] -0.019 | [9] -0.001 | [10] -0.026 | [11] 0 | [12] -0.004 | [13] 0.019 | [14] -0.004 | [15] 0.008 | [16] 0.001 | [17] -0.003 | [18] -0.012 | [19] -0.004 | [20] 0.014

ARFGEF2 (UniProt Q9Y6D5)
inactive: [1] 0.039 | [2] -0.035 | [3] -0.041 | [4] -0.023 | [5] 0.007 | [6] -0.036 | [7] -0.044 | [8] 0.016 | [9] 0.031 | [10] -0.001 | [11] 0.029 | [12] 0.023 | [13] 0.004 | [14] -0.04 | [15] -0.019 | [16] 0.027 | [17] 0.007 | [18] 0.011 | [19] 0.001 | [20] -0.028

ARPP19 (UniProt H3BMD8)
inactive: [1] -0.022 | [2] -0.044 | [3] 0.036 | [4] 0.03 | [5] -0.001 | [6] 0.002 | [7] 0.003 | [8] -0.002 | [9] 0.049 | [10] 0.018 | [11] 0.016 | [12] -0.011 | [13] 0.044 | [14] -0.054 | [15] -0.018 | [16] -0.005 | [17] 0.004 | [18] 0.022 | [19] -0.006 | [20] -0.06

AP5M1 (UniProt Q9H0R1)
inactive: [1] -0.08 | [2] 0.196 | [3] 0.002 | [4] -0.102 | [5] 0.199 | [6] -0.013 | [7] -0.173 | [8] 0.047 | [9] 0.013 | [10] 0.038 | [11] -0.374 | [12] 0 | [13] 0.025 | [14] -0.052 | [15] 0.005 | [16] -0.012 | [17] 0.062 | [18] -0.024 | [19] 0.108 | [20] 0.034

ARCN1 (UniProt P48444)
inactive: [1] -0.014 | [2] 0.043 | [3] 0.003 | [4] -0.009 | [5] -0.005 | [6] 0.001 | [7] 0.003 | [8] -0.024 | [9] -0.013 | [10] 0.004 | [11] -0.013 | [12] -0.009 | [13] -0.017 | [14] 0.005 | [15] -0.013 | [16] -0.042 | [17] -0.001 | [18] -0.003 | [19] -0.012 | [20] 0.016

APOBEC3D (UniProt Q96AK3)
inactive: [1] 0 | [2] -0.023 | [3] 0.041 | [4] -0.059 | [5] -0.054 | [6] 0.03 | [7] -0.023 | [8] -0.009 | [9] -0.014 | [10] -0.064 | [11] -0.087 | [12] -0.022 | [13] -0.037 | [14] -0.01 | [15] 0.098 | [16] -0.007 | [17] -0.034 | [18] 0.032 | [19] 0.032 | [20] 0.05

ARRDC1 (UniProt Q8N5I2)
inactive: [1] 0.029 | [2] -0.044 | [3] -0.032 | [4] 0.038 | [5] 0.042 | [6] -0.082 | [7] 0.076 | [8] 0.035 | [9] 0.015 | [10] -0.096 | [11] 0.048 | [12] -0.024 | [13] 0.017 | [14] 0.003 | [15] 0.01 | [16] 0.055 | [17] 0 | [18] 0.017 | [19] 0.1 | [20] 0.035

ARNT (UniProt P27540)
inactive: [1] 0.007 | [2] -0.199 | [3] 0.036 | [4] -0.019 | [5] -0.069 | [6] 0.021 | [7] -0.081 | [8] 0.005 | [9] 0.044 | [10] 0.017 | [11] -0.052 | [12] -0.039 | [13] 0 | [14] -0.029 | [15] 0.007 | [16] 0.056 | [17] -0.021 | [18] -0.012 | [19] -0.072 | [20] 0.007

ARF4 (UniProt P18085)
inactive: [1] -0.052 | [2] -0.018 | [3] 0.004 | [4] -0.009 | [5] -0.001 | [6] -0.039 | [7] 0.025 | [8] -0.074 | [9] 0.006 | [10] -0.017 | [11] -0.005 | [12] -0.035 | [13] 0.042 | [14] -0.014 | [15] -0.027 | [16] -0.01 | [17] -0.005 | [18] 0.037 | [19] -0.046 | [20] -0.034

ARID1B isoform 3 (UniProt Q8NFD5)
inactive: [1] 0.064 | [2] 0.065 | [3] 0.047 | [4] 0.029 | [5] 0.016 | [6] -0.001 | [7] -0.019 | [8] -0.015 | [9] -0.035 | [10] 0.02 | [11] -0.056 | [12] -0.031 | [13] 0.026 | [14] 0.001 | [15] 0.016 | [16] -0.008 | [17] 0.019 | [18] -0.025 | [19] -0.034 | [20] -0.031

Pulled one by one from above, 2 records:
ARCN1 (UniProt P48444)
inactive: [1] -0.014 | [2] 0.043 | [3] 0.003 | [4] -0.009 | [5] -0.005 | [6] 0.001 | [7] 0.003 | [8] -0.024 | [9] -0.013 | [10] 0.004 | [11] -0.013 | [12] -0.009 | [13] -0.017 | [14] 0.005 | [15] -0.013 | [16] -0.042 | [17] -0.001 | [18] -0.003 | [19] -0.012 | [20] 0.016

ARFGEF2 (UniProt Q9Y6D5)
inactive: [1] 0.039 | [2] -0.035 | [3] -0.041 | [4] -0.023 | [5] 0.007 | [6] -0.036 | [7] -0.044 | [8] 0.016 | [9] 0.031 | [10] -0.001 | [11] 0.029 | [12] 0.023 | [13] 0.004 | [14] -0.04 | [15] -0.019 | [16] 0.027 | [17] 0.007 | [18] 0.011 | [19] 0.001 | [20] -0.028

More records.

ARL6IP4 (UniProt Q66PJ3)
inactive: [1] -0.003 | [2] -0.114 | [3] 0.06 | [4] -0.122 | [5] 0.008 | [6] 0.004 | [7] -0.008 | [8] 0.047 | [9] 0.055 | [10] 0.021 | [11] 0.028 | [12] -0.024 | [13] 0.001 | [14] -0.027 | [15] -0.028 | [16] -0.043 | [17] -0.015 | [18] -0.029 | [19] 0.007 | [20] -0.008

ARL6IP5 (UniProt O75915)
inactive: [1] -0.06 | [2] 0.013 | [3] -0.102 | [4] -0.043 | [5] 0.01 | [6] 0.013 | [7] 0.038 | [8] 0.019 | [9] -0.042 | [10] -0.024 | [11] 0.032 | [12] 0.014 | [13] 0.036 | [14] 0.011 | [15] -0.003 | [16] 0 | [17] 0.034 | [18] -0.106 | [19] -0.01 | [20] -0.004

ARPC3 (UniProt O15145)
inactive: [1] -0.066 | [2] -0.026 | [3] -0.017 | [4] -0.014 | [5] 0.02 | [6] -0.033 | [7] 0.021 | [8] 0.004 | [9] -0.024 | [10] -0.03 | [11] 0.043 | [12] 0.013 | [13] -0.027 | [14] 0.017 | [15] -0.019 | [16] -0.016 | [17] 0.013 | [18] -0.047 | [19] -0.031 | [20] 0.015

ARMC6 (UniProt Q6NXE6)
inactive: [1] 0.012 | [2] -0.026 | [3] -0.093 | [4] 0.022 | [5] 0.04 | [6] 0.006 | [7] -0.027 | [8] 0.021 | [9] -0.031 | [10] -0.005 | [11] 0.023 | [12] 0.005 | [13] 0.007 | [14] -0.005 | [15] 0.002 | [16] -0.013 | [17] 0.001 | [18] -0.011 | [19] 0.016 | [20] 0

ARPC1A (UniProt Q92747)
inactive: [1] -0.028 | [2] -0.075 | [3] 0.033 | [4] 0.03 | [5] 0.006 | [6] -0.015 | [7] 0.023 | [8] -0.026 | [9] -0.009 | [10] 0.037 | [11] 0.005 | [12] 0.003 | [13] -0.002 | [14] -0.056 | [15] -0.02 | [16] 0.045 | [17] 0.004 | [18] 0.002 | [19] -0.033 | [20] -0.001

APAF1 (UniProt O14727)
inactive: [1] 0.005 | [2] 0.084 | [3] -0.054 | [4] 0.019 | [5] -0.016 | [6] -0.029 | [7] -0.003 | [8] 0.022 | [9] 0.015 | [10] -0.021 | [11] 0.027 | [12] 0.063 | [13] 0.031 | [14] -0.04 | [15] 0.009 | [16] 0.008 | [17] -0.005 | [18] 0.003 | [19] 0.002 | [20] 0.022
